US9328334B2, “Luciferase derived from lucidina accensa” (OLYMPUS CORPORATION, priority 2011, dated 2016)

Columns and labels:
[1] = Measurement of light emission spectra of purified luciferase under various pH environments; type: biochemical
Description: With use of LumiFlSpectroCapture (manufactured by ATTO Corporation) as an apparatus for measurement, to a solution of 0.1 M citric acid/0.1 M Na2HPO4 buffer (pH 5.5 to 8.0) containing 1 mM of D-luciferin, 2 mM of ATP and 4 mM of MgCl2 the purified enzyme was added at a final concentration of 1 μg/mL, and after 15 seconds of addition of the enzyme luminescence spectra was measured. The measurement results were illustrated in FIG. 1.
After that, each of thus-prepared genes (SEQ ID NOs: 38 and 39) was introduced into pRSET-B vector according to the same method as the Example 2. This vector was transformed to E. coli JM109 (DE3) strain to express the mutant luciferase. Subsequently, the mutant luciferase was purified from E. coli. In addition, under various pH environments, the light emission spectrum was measured according to the same method as the Example 2 from a light emitting reaction catalyzed by the mutant luciferase.

[2] = test system: E. coli JM109 (DE3) strain; experiment: Temperature dependency of luminescence intensity: E. coli colonies heat treated at 55° C., CCD image (Example 7); type: cell-based, Escherichia coli; conditions: 55° C. for 1 hour, 0.5 mM D-luciferin spray
Description: Each of the wild type luciferase gene and two kinds of the mutant gene obtained in the Example 6 was introduced into pRSET-B vector and transformed to E. coli JM109 (DE3) strain to form a colony. Thus-obtained colony was cultured and applied on a LB agar medium to form again the colony for 24 hours. After that, it was subjected to the heat treatment at 55° C. for 1 hour and kept at room temperature for 1 hour. It was then sprayed with a liquid containing 0.5 mM D-luciferin and a photographic image thereof was taken for 1 min by using a CCD camera (trade name: DP70, manufactured by Olympus Corporation).

B1: wild type luciferase: wild type luciferase obtained from Lucidina accensa, amino acid sequence SEQ ID NO: 1 (protein, listed as Lucidina accensa)
chain: MEEDKNILRGPAPFYPLEDGTAGEQLHRAMKRYALIPGTIAFTDAHAGVNITYSEYFEMACRLAESLKRYGLGLQHRIVVCSENSLQFFMPVVGALFIGVGVAPANDIYNERELLNSMTISQPTLVFCSRKGLQKILNVQKKLPVIQKIIILDTKEDYMGFQSMYSFVDSQLPVGFNEYDYVPDSFDRDQATALIMNSSGSTGLPKGVELNHTSVCVRFSHCRDPVYGNQIIPDTAILSVIPFHHGFGMFTTLGYLICGFRVVLMYRFEEELFLRSLQDYKIQSALLVPTLFSFFAKSTLIDKYDLSNLHEIASGGAPLAKEVGEAVAKRFNLRGIRQGYGLTETTSAVIITPEGDDKPGAVGKVVPFFSAKVVDLDTGKTLGVNQRGELCLKGPMIMKGYVNNPEATNALIDKDGWLHSGDISYWDEDGHFFIVDRLKSLIKYKGYQVPPAELESILLQHPFIFDAGVAGIPDDEAGELPAAVVVLEEGKTMTEKEIMDYVAGQVTTAKRLRGGVVFVDEVPKGLTGKIDARKIREILVKVKKTKSKL
For B1, the maximum luminescent wavelength ([1]; pH 5.5) was “approximately 616 nm”, the maximum luminescent wavelength ([1]; pH 6.0) was “approximately 614 nm” and the “color of light emission in color photographic image” value (shortened to “color of light emission”) [2] was “yellow color with a hint of orange; also recorded: yellow color with a hint or orange”.

B2: mutant luciferase (F294Y, V323L, and E354V): L. accensa luciferase mutant with F294Y, V323L and E354V, amino acid sequence SEQ ID NO: 34 (protein, listed as Lucidina accensa)
chain: B1 chain with F294Y, V323L, E354V
For B2, the maximum luminescent wavelength ([1]; pH 7.4) was roughly 615 nm and the “color of light emission” value [2] was “red color”.

B3: mutant luciferase (E322W): L. accensa luciferase mutant with E322W, amino acid sequence SEQ ID NO: 36 (protein, listed as Lucidina accensa)
chain: B1 chain with E322W
In the case of B3, the maximum luminescent wavelength ([1]; pH 8.0, 1 mM D-luciferin, 2 mM ATP, 4 mM MgCl2, enzyme 1 μg/mL) is reported as roughly 557 nm and the “color of light emission” value [2] is reported as “yellowish green color”.

Changes are numbered by the printed parent chain. Names and notes keep the numbering of the source. “Also recorded” adds a separate entry of the source.
